“Also recorded” adds a separate entry of the source. For at least one compound, name, drawing or mass did not settle the structure.
What was measured:
[1] = tested on: male ICR mice; test: Head twitch response (HTR) induced by psilocybin in mice; assay type: in vivo
Source text: The head twitch response (HTR) induced by serotonergic psychedelic agents such as psilocybin (PSIL) in rodents, is a characteristic behavioral effect mediated by cortical 5-HT2A receptors that is highly correlated with the psychedelic trip induced by these agents in humans.
In order to determine whether the negative effects such as HTR could be blocked in schizophrenic patients administered psilocybin (PSIL) (which ordinarily would produce “trip-induced effects”) upon further receiving clozapine (CLZ), the effect of concurrent CLZ treatment in blocking the HTR-inducing effect of PSIL in mice was examined.
Toward this end, male ICR mice (aged 8 weeks) were implanted with mini car-magnets and were administered the following treatments intraperitoneally (i.p.): • 1. CLZ at a dosage of 1 or 2 mg/kg weight; • 2. PSIL at a dosage of 4.4 mg/kg weight; • 3. CLZ at a dosage of 1 mg/kg weight and PSIL at a dosage of 4.4 mg/kg weight; • 4. CLZ at a dosage of 2 mg/kg weight and PSIL at a dosage of 4.4 mg/kg weight; and • 5. Vehicle (Saline) controls.
CLZ was administered 30 minutes before PSIL. All injection volumes were identical. HTR was assessed in up to 6 mice simultaneously over a 20-minute period using a purpose-built magnetometer and custom software. Experiments were approved by the Authority for Biological and Biomedical Models, Hebrew University
To further extend these studies, it was of interest to determine the HTR effects induced by Psilocybin when mice were pre-administered D-Serine 3000 mg/kg, as opposed to CLZ (FIG. 2A), or D-Serine 1500 mg/kg, as opposed to CLZ (FIG. 2B).

[2] = tested on: ICR mice; test: MK-801 induced hyperactivity in the open field; assay type: in vivo
Procedure: Hyperactivity induced in rodents by the NMDA receptor antagonist, MK-801, is a key rodent pharmacological model of acute psychotic features in humans.
Drugs which induce psychosis in humans enhance MK-801 induced hyperactivity in rodents while antipsychotic drugs reduce or block the effect.
In order to determine the interactive effects of PSIL and CLZ, a murine model was used where MK-801 induced hyperactivity, was assessed, which serves as a surrogate system for psychotic symptoms in schizophrenia patients.
Toward this end PSIL and CLZ alone and in combination were evaluated for their effects on MK-801 induced hyperactivity in […].
ICR mice were administered MK-801 intra-peritoneally, at a dose of 0.1 mg/kg immediately before they were placed in an open field for one hour. 30 minutes prior to administration of MK-801, mice were pretreated as follows: • 1. PSIL at a dosage of 4.4 mg/kg; • 2. CLZ at a dosage of 1.0 mg/kg; • 3. PSIL at a dosage of 4.4 mg/kg and CLZ at a dosage of 1.0 mg/kg; • 4. D-Serine (DSR) at a dosage of 3000 mg/kg; • 5. D-cycloserine (DCS) at a dosage of 320 mg/kg; • 6. PSIL at a dosage of 4.4 mg/kg and DSR at a dosage of 3000 mg/kg; • 7. PSIL at a dosage of 4.4 mg/kg and DCS at a dosage of 320 mg/kg; and • 8. Saline (Vehicle) Controls (n=8).
All injection volumes were identical and provided intraperitoneally.
Activity in the open field was monitored by an overhead camera and was recorded by a Noldus Ethovision apparatus. Experiments were approved by the Authority for Biological and Biomedical Models, Hebrew University. Distance moved/travelled in the open field, center duration and center frequency were evaluated in the open field arena.

[3] = tested on: mice; test: Neonatal MK-801 schizophrenia model (planned study); assay type: in vivo; conditions: expected
[4] = tested on: patients with chronic schizophrenia, treatment resistant depression or PTSD; test: Envisioned clinical treatment regimens (Example 5); assay type: in vivo; conditions: clozapine 2.8-5.6 mg/kg for at least 2 weeks; psilocybin once weekly for 4 weeks (FIG. 7); expected
[5] = tested on: GAP43; test: Western Blot of synaptic protein GAP43 in brain regions, 7 days post-administration; assay type: in vivo, mice; conditions: across the four brain regions frontal cortex, hippocampus, amygdala and striatum; 7 days post-administration (FIG. 6)
Procedure: (§1) Specifically, ICR mice were administered a single intra-peritoneal injection of psilocybin at a dosage of 4.4 mg/kg, D-Serine at a dosage of 3 g/kg, a combined psilocybin dosage of 4.4 mg/kg+D-Serine dosage of 3 g/kg and compared to control animals (administered a saline vehicle). 7 days post-administration, animals were harvested, and individual brain regions were dissected, homogenized and processed for Western Blot analysis, probing for GAP43, Synaptophysin and SV2A protein expression, using commercially available reagents (Abcam).
(§2) Animals injected with PSIL or D-SER or the combination of the two were specifically probed for changes in synaptic protein expression, for proteins that are pivotally involved in neuroplasticity of the brain, focusing on 4 key regions: the brain frontal cortex, hippocampus, amygdala and striatum.
(§3) In order to comparatively assess all the effects of individual DSER or PSIL and combined DSER and PSIL administration on each brain region, a nested analysis of variance in which the level each of the synaptic proteins was compared to controls was assessed across the four brain regions frontal cortex, hippocampus, amygdala and striatum (FIG. 6).

[6] = tested on: Synaptophysin; test: Western Blot of synaptic protein Synaptophysin in brain regions, 7 days post-administration; assay type: in vivo, mice; conditions: across the four brain regions frontal cortex, hippocampus, amygdala and striatum; 7 days post-administration (FIG. 6)
Procedure: as §1, §2, §3

Compound	PSIL-mediated increased HTR (total, 20 minutes) ([1]; CLZ 1 mg/kg i.p. 30 minutes before PSIL 4.4 mg/kg i.p. (FIG. 1A))	PSIL-mediated HTR (total, 20 minutes) ([1]; CLZ 2 mg/kg i.p. 30 minutes before PSIL 4.4 mg/kg i.p. (FIG. 1A))	total HTR over a 20-minute period ([1]; CLZ alone, 1 or 2 mg/kg i.p. (FIG. 1A))	PSIL-mediated HTR ([1]; CLZ at a dosage equivalent to that administered clinically to humans (summary statement))	PSIL-mediated increased HTR over time ([1]; plotted for up to 30 minutes, CLZ before PSIL (FIG. 1B))	MK-801 induced hyperactivity (distance travelled in the open field) ([2]; CLZ 1.0 mg/kg i.p. 30 minutes prior to MK-801 0.1 mg/kg i.p.)	therapeutic effects of PSIL in the neonatal MK-801 schizophrenia model ([3]; concurrent treatment with CLZ or D-serine)	trip-inducing effects of psilocybin [4]	total HTR over a 20-minute period ([1]; PSIL 4.4 mg/kg i.p. alone, in comparison to controls (FIG. 1A))	MK-801 induced hyperactivity (distance travelled in the open field) ([2]; PSIL 4.4 mg/kg i.p. 30 minutes prior to MK-801 0.1 mg/kg i.p.)	MK-801 induced hyperactivity (distance travelled in the open field) ([2]; PSIL 4.4 mg/kg i.p. 30 minutes prior to MK-801 0.1 mg/kg i.p., listed as Psilocybin)	GAP43 levels, nested analysis of variance compared to controls [5]	Synaptophysin expression, nested analysis of variance compared to controls [6]	neonatal MK-801 induced schizophrenia like phenotypes ([3]; chronic (21 days) and/or subchronic sub-psychedelic doses of PSIL and an acute psychedelic dose of PSIL)	schizophrenia-like phenotypes ([3]; psychedelic dose of PSIL)
CN1CCN(C2=Nc3cc(Cl)ccc3Nc3ccccc32)CC1 [CLZ, clozapine]	significantly reduced	abrogated PSIL-mediated HTR entirely	did not affect HTR	blocked	rapid abrogation	significantly reduced	enhances the therapeutic effects of PSIL	eliminate the trip-inducing effects of psilocybin							
CN(C)CCc1c[nH]c2cccc(OP(=O)(O)O)c12 [PSIL, psilocybin]									significant increase	did not increase; also recorded: does not enhance	did not exacerbate	does not	increasing levels	robust effects	robust beneficial effect

— US20260083759A1, “Combinations Comprising Psychedelics for the Treatment of Schizophrenia and Other Neuropsychiatric and Neurologic Disorders” (HADASIT MEDICAL RESEARCH SERVICES AND DEVELOPMENT LTD, priority 2022, published 2026)
